# Measured values: US5432064A, “Process for dephosphorylating linear polynucleotide substrate with prosphatase form aspergillus niger” (Board of Regents of the University of Nebraska, priority 1992, dated 1995)
# At least one compound was matched to its structure with a doubt left.
# System: Aspergillus niger heat-labile phosphatase (4-nitrophenylphosphatase), purified, strain NRRL-3
# Assay: A. niger phosphatase activity assay with 4-NPP as substrate (formation of p-nitrophenol at 400 nm)
# Assay type: biochemical
# Experimental: A. niger phosphatase activity was routinely determined by monitoring, in a spectrophotometer set at an absorbance wavelength of 400 nm, the formation of p-nitrophenol generated by the hydrolysis of 4-NPP (purchased from Calbiochem). Non-enzymatic hydrolysis controls were routinely included. The phosphatase assay contained the following in a total volume of 1.0 ml: 8 mM 4-NPP; 25 mM Tris-HCl (pH 8.0); and 5 mM MgCl2. The reaction, which was initiated by addition of the crude, mycelium-free supernatant fluid mentioned above, was carried out at 30° C. in a Varian DMS 70 spectrophotometer with a wavelength bandpass of 2 nanometers. Molar absorptivity of 4-nitrophenol at pH 8.0 was 1.62×10^4 M^-1 cm^-1.
# To further examine one of these potential substrates at a greater level of sensitivity, the enzyme was incubated with [gamma-^32 P]ATP under identical conditions and assayed for the liberation of ^32 Pi. No liberation above background was detected and hydrolysis of ATP appeared to occur at a rate less than one/ten-millionth of that observed with 4-NPP.
# Prospective inhibitors were added to the standard assay with 4-NPP as substrate and inhibition was monitored and expressed as percent inhibition of the untreated sample (TABLE 3).
structure (smiles),measurement,setting,value
"O=[N+]([O-])c1ccc(OP(=O)(O)O)cc1 [4-NPP, 4-nitrophenylphosphate]",Km,"double reciprocal plots, 25 mM Tris-HCl pH 8.0, 5 mM MgCl2, 30° C.",770 µM
same,turnover number,"purified enzyme, substrate 4-NPP",108 per second
